Results are given in words; binding and its absence hold for the method and conditions named. In cells and extracts the contact can be indirect. Some binding calls cover weakened binding; strength is not graded here. Sequences can lack the tags named with a protein.
T1: Hrd1-3FLAG (S. cerevisiae) (UniProt Q08109)
T1 sequence: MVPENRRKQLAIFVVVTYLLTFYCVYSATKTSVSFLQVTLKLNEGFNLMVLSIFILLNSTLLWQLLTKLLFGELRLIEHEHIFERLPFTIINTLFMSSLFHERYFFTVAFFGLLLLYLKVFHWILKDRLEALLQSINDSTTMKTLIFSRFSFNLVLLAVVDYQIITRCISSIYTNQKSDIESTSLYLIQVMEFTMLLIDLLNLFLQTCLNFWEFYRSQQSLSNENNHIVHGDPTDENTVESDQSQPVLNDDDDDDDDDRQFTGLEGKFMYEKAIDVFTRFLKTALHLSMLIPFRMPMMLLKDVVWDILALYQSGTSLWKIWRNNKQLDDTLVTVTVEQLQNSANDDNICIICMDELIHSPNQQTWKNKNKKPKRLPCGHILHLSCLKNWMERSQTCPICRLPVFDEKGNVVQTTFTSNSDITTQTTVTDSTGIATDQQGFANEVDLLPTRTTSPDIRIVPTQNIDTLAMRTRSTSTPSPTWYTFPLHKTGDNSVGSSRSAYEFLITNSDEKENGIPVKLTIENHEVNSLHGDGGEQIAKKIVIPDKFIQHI


Target: T1, Hrd1-3FLAG (S. cerevisiae)
Test: co-IP; Hrd1-3FLAG immunoprecipitated with anti-FLAG M2 affinity gel from 1% digitonin-solubilized membrane fractions (20 mM Tris-HCl pH 7.5, 100 mM NaCl, 10% glycerol), 4°C; cells treated with or without 10 mg/ml HU for 1 h at 30°C; Western blotting

binding | Binder
binds | Yos9 (protein, UniProt Q99220 22-542) LLAPIEDPIVSNKYLISYIDEDDWSDRILQNQSVMNSGYIVNMGDDLECFIQNASTQLNDVLEDSNEHSNSEKTALLTKTLNQGVKTIFDKLNERCIFYQAGFWIYEYCPGIEFVQFHGRVNTKTGEIVNRDESLVYRLGKPKANVEEREFELLYDDVGYYISEIIGSGDICDVTGAERMVEIQYVCGGSNSGPSTIQWVRETKICVYEAQVTIPELCNLELLAKNEDQKNASPILCRMPAKSKIGSNSIDLITKYEPIFLGSGIYFLRPFNTDERDKLMVTDNAMSNWDEITETYYQKFGNAINKMLSLRLVSLPNGHILQPGDSCVWLAEVVDMKDRFQTTLSLNILNSQRAEIFFNKTFTFNEDNGNFLSYKIGDHGESTELGQITHSNKADINTAEIRSDEYLINTDNELFLRISKEIAEVKELLNEIVSPHEMEVIFENMRNQPNNDFELALMNKLKSSLNDDNKVEQINNARMDDDESTSHTTRDIGEAGSQTTGNTESEVTNVAAGVFIEHDEL
binds | Usa1 (protein, UniProt Q03714 1-838) MSEYLAQTPCKFTIWSSEIDLIRTNLLVNAHPLSTVGRLLQYIHYQIYKQLRAIYQPEEQCTNSEIPHTPLNSINTYFLSYEGRELSATCLLKDITSSSHPDSNHFIRLQLEKRTSPSGSAFDLEYDMEGEFNSMNIQFEINTLSSQRIFNSMEPNLPIGTTLARLEKLALERIKDFEKSAGNLCGIKEDHSVSDLQGFIIKGKQTPMFLNYGSDSDYYKDLNLVDLIGIDFAPAHNSFFTFLFKMNHEQNSHIANDEERFVLEFISDATLSITQMNVKPDTTVKQVKDFICSVYTHSLNLRRNDIKLIYKGQLLHENNFAGNSSKISEYIKEPHEVKVHVQINQEYTESGPGFWNEVFNNPNIFQFMPPDTRSQSPVSFAPTQGRSPAAIRGEERGIPYVTESGNDIVPTDELYRKCIINGDEVVFIPVSELNPQSSYLSVIKGDYGEIKIPISSNDYRINGDNILLSPSAIEQLESALNFKIERPRDSTLLHPSGEHVRAADNTSSANDNNTVENDESAWNRRVVRPLRNSFPLLLVLIRTFYLIGYNSLVPFFIILEFGSFLPWKYIILLSLLFIFRTVWNTQEVWNLWRDYLHLNEIDEVKFSQIKEFINSNSLTLNFYKKCKDTQSAIDLLMIPNLHEQRLSVYSKYDIEYDTNTPDVGQLNLLFIKVLSGEIPKDALDELFKEFFELYETTRNMNTLYPQDSLNELLLMIWKESQKKDINTLPKYRRWFQTLCSQIAEHNVLDVVLRYIIPDPVNDRVITAVIKNFVLFWVTLLPYVKEKLDDIVAQRARDREQPAPSAQQQENEDEALIIPDEEEPTATGAQPHLYIPDED

Reference: paper PMC12181674
